Positions count from the first letter of the chain named. Numbers in names are those of the source. No constants are given. Whether binding was seen depends on the method and setting. Binding seen in cells or lysates may run through a third protein. Some entries that bind do so weakly or less than the wild type. Each block holds one binder with its values, some of them ahead of it.
What was measured:
[1] = target: Strep-ChlN (ChlN subunit of the NB protein of dark-operative protochlorophyllide oxidoreductase) from Leptolyngbya boryana, expressed in L. boryana YFB14 (Leptolyngbya boryana) (UniProt Q04607); test: pull-down; ChlB variants co-expressed with Strep-ChlN in L. boryana YFB14; soluble extracts on a Strep-Tactin column in an anaerobic chamber; affinity-purified proteins detected by Western blot with anti-ChlN and anti-ChlB antisera
[2] = target: Strep-ChlN from Leptolyngbya boryana, expressed in E. coli (Leptolyngbya boryana) (UniProt Q04607); test: pull-down; ChlB variants co-expressed with Strep-ChlN in E. coli; soluble fractions on a Strep-Tactin column in an anaerobic chamber; affinity-purified proteins on SDS-PAGE stained with Coomassie Brilliant Blue, yields quantitated

Sequences of proteins named here, by UniProt entry; tags and fusion partners are left off.
UniProt Q04607: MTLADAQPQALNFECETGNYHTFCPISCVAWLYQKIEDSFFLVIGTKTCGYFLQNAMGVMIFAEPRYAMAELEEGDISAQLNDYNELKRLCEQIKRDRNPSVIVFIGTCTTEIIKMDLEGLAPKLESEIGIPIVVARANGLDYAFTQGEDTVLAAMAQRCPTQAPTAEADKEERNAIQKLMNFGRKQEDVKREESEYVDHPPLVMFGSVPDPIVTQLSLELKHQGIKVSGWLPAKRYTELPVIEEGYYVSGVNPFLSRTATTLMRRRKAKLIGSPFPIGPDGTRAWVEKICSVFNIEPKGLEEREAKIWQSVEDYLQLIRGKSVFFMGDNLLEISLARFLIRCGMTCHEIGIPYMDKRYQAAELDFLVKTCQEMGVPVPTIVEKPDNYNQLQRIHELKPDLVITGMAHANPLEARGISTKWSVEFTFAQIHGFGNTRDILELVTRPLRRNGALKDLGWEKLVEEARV

binding [1]: binds
B1: wild-type ChlB from Leptolyngbya boryana, expressed in E. coli (natural protein, UniProt P95463 1-508, looked up)
chain: MKLAYWMYAGPAHIGTLRIASSFKNVHAIMHAPLGDDYFNVMRSMLERERDYTPVTTSVVDRHVLARGSQEKVVDNITRKDAEEHPDLIVLTPTCTSSILQEDLQNFVERAQLEAKGDVMLADVNHYRVNELQAADRTLQQIVQFYIAKARKQGNLVTEKTEKPSVNIFGMTTLGFHNNHDATELKKLMSDLGIEVNAIVPAGASVHELKSLPRAWFNLVPYRETGLLAAEFLQQEFNMPYVDITPIGIVETARCIRKIQQVINAQGANVDYEPFIDQQTRFVSQAAWFSRSIDCQNLTGKKAVVFGDNTHAAALTKILAREMGIHVLLAGTYCKYDEAWFREQVSEYCDDVLVSDDNGQIADAIARLEPAAIFGTQMERHVGKRLDIPCGVIAAPIHIQNFPVGYKPFVGYEGSNQIVDLIYNSFTLGMEDHLLEIFGGHDTKEVITKSVSADSDLNWSKDGLAELNRIPGFVRGKVKRNTEKFARDRNITQITAEVLYAAKEAVGA
notes: ChlB, subunit of DPOR (NB protein), Leptolyngbya boryana; also called WT ChlB; WT control; source: E. coli (pHANB2), in soluble fraction

binding [1]: binds
B2: ChlB_R (W216R, pre-edited mimic variant of L. boryana ChlB), expressed in L. boryana YFB14 (YFB14/NB2_R) (protein, UniProt P95463 1-508)
chain: B1 chain with W216R

binding [1]: no binding
B3: ChlB_PR (L209P and W216R, doubly pre-edited mimic variant of L. boryana ChlB), expressed in L. boryana YFB14 (YFB14/NB2_PR) (protein, UniProt P95463 1-508)
chain: B1 chain with L209P, W216R

binding [2]: no binding
B4: ChlB_PR (L209P and W216R variant of L. boryana ChlB), expressed in E. coli (protein, UniProt P95463 1-508)
chain: B1 chain with L209P, W216R
